Measurements reported in article PMC2654425.

Target: T1, Lactobacillus plantarum LM3 EnoA1 alfa-enolase (phosphopyruvate hydratase) (Lactobacillus plantarum LM3 (endogenous in LM3 cells)) (UniProt Q88YH3)
T1 sequence: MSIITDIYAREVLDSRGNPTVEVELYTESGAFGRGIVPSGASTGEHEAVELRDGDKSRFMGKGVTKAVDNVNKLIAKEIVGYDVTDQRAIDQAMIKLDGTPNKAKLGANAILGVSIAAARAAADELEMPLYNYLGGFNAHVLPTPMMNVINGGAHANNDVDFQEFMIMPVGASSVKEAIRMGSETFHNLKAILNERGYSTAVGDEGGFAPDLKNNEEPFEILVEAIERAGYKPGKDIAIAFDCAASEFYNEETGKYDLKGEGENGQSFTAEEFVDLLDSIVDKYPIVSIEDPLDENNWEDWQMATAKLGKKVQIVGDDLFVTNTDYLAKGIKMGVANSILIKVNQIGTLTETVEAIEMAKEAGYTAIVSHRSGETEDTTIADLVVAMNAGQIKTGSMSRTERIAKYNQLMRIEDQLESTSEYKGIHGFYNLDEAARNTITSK
Experiment: far-Western, overlay or dot blot; L. plantarum surface proteins (10 micrograms) separated by SDS-PAGE (10%), blotted onto PVDF, overlaid with 0.2 micrograms/ml human fibronectin overnight at 4°C in NN' buffer; bound fibronectin detected with primary antibody for fibronectin, HRP secondary antibody and ECL; extracts of LM3 and of the enoA1 null strain LM3-CC1; only the binder purified

## human fibronectin
  binding: binds

No constants are given. Whether binding was seen depends on the method and setting. Binding calls can cover weak binding; strength is not graded here.
